Results from patent publication US7244712B2, “Aminoglycoside antibiotics and methods of using same” (priority 2004, dated 2007).
For at least one compound, name, drawing or mass did not settle the structure.

How the values were obtained:
[1] = target: bacterial 16S A-site rRNA construct (B), D-RNA; assay: Fluorescence anisotropy binding, D-RNA bacterial A-site decoding region construct B; details: competition with CRP; read-out: Dissociation constant of aminoglycoside complex with D-B
Text: Experiments were designed to probe the stereospecificity of aminoglycoside binding to the RNA constructs shown in FIG. 9 because these small rRNA constructs mimic ribosomal decoding region RNA function. The three constructs shown include a bacterial 16S A-site rRNA construct (B) (27), its human counterpart (H), and an RNA aptamer (J6f1) selected to bind to the aminoglycoside tobramycin (12,15,16).
L-aminoglycoside binding to D-RNA sequences are energetically equivalent to binding the enantiotopic D-aminoglycoside to an L-RNA sequence. Initial binding experiments were carried out using enantiomerically pure L-RNA constructs, B, H, and J6f1 (FIG. 9A-C) and D-aminoglycoside compounds. […] The constructs were tested for aminoglycoside binding using the fluorescence anisotropy method described in Example 4. […]
(§1) 5-Carboxytetramethylrhodamine-labeled paromomycin (CRP) and tobramycin (CRT) concentrations were determined spectroscopically at 550 nm using a molar extinction coefficient of 6.00×10 4 M −1 cm −1. Fluorescence anisotropy measurements were performed on a Perkin-Elmer LS-50B luminescence spectrometer equipped with a thermostat accurate to ±0.1° C. as indicated previously (Wang, Y., Hamasaki, K., & Rando, R. R. (1997) Biochemistry 36, 768-779). The tracer solution was excited at 550 nm and monitored at 580 nm. […]

80S ribosome = assay: Fluorescence anisotropy binding to 80S ribosomes; design: species or system yeast (S. cerevisiae); details: competition with CRP, yeast ribosomes; read-out: Dissociation constant (KD) with 80S ribosome
Experimental: After establishing the lack of stereospecificity in the binding of aminoglycosides to the A-site RNA constructs (FIG. 9A-C) where the binding affinity, KD, is about 0.1 μM to about 100 μM, the stereospecificity of aminoglycoside binding to intact ribosomes was determined. Both yeast and E. coli ribosomes were prepared and aminoglycoside binding was measured using fluorescence anisotropy methods. For example, fluorescence anisotropy methods recited in Wang, Y., and Rando, R. R. Chem. Biol. (1995) 2, 281-290; and Wang, Y., Hamasaki, K., and Rando, R. R. Biochemistry (1997) 36,768-779. CRP was used as the binding probe. […]
as §1
Equation 2 is used for the calculation of the KD values in the competition binding assay. […] Both Kd and KD were determined by non-linear curve fitting using the equations described above, and are presented as mean values of three independent measurements. […]

E. coli ribosomes = details: published measurements; read-out: KD reported by radio ligand binding assay; cited from earlier work

For NC[C@H]1O[C@H](O[C@H]2[C@H](O)[C@@H](O[C@H]3O[C@H](CO)[C@@H](O)[C@H](N)[C@H]3O)[C@H](N)C[C@@H]2N)[C@H](O)[C@@H](O)[C@@H]1O [Kanamycin], the Kd [1] is given as 1250 ± 70 nM, the Kd (80S ribosome) is given as 2630 ± 520 nM and the Kd (E. coli ribosomes) is given as 1700 nM.
